# Some of the results follow.
# B1: GS7807Q-bfa-507-19-507 (Bacteroides fragilis) (protein)
# chain: ASCNKFDDLNTNPDAATKVTAPMLATKLILNITQQGSAKNFVYHSMLSKQIAWSENASDEQYNLFGRTDFDGYTILTNCQKMVDAANEGDKDSYAALAKFMKAYKLFYKSLEVGDIPYSDALKGEEGVQKPKYDTQKEVMRQVLEDLEEAYTLFSSGSDFDGDPIFGGDTENWKKTVVAFELKVLTHLCKKDTDADLKVKERFARLVSSGSLMTSNADNFQLVYSNKAGQLYPFYYTQNKHSDYLMMSSVIIDNLKKFNDYRMFYYASPAKAQTDKGIKDSEWDAYLSIDPSDSYSNISVLYGKGEFCLANLRYTRVPEGEPLMRLSYAEQNFILAEGAVRGWISEDASTYYKKGIEASMNFIADNTPDKEEYTHGRTITQEYIQEYLAQPVIQLSGDKEKDLEMILLQRYLASFLQHPYDAYYDYRRTGYPVLPINPSTNLNTEKNKIPTRWMYPEAEFSYNPDNANEAVQRQYNGSDDVNKLMWILQ
# Key:
# Assay in all cases: glycan array binding signal (z-score within array); higher = stronger binding
# Settings in all cases: glycan notation: IUPAC condensed, linker removed
# Kdn(a2-3)Gal(b1-4)Glc = target: Kdn(a2-3)Gal(b1-4)Glc
# Method in brief: (§1)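 From the Consortium for Functional Glycomics database, 3228 arrays were curated, keeping only those whose protein sequence was available. Binding is given as a within-array Z-score averaged across arrays sharing a protein sequence and across linkers. Negative Z-scores can be read as non-binding.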
# Kdn(a2-3)Gal(b1-4)GlcNAc = target: Kdn(a2-3)Gal(b1-4)GlcNAc
# Method in brief: as §1
# [1] = target: Kdn(a2-3)Gal(b1-4)[Fuc(a1-3)]GlcNAc
# Method in brief: as §1
# Kdn(a2-6)Gal(b1-4)GlcNAc = target: Kdn(a2-6)Gal(b1-4)GlcNAc
# Method in brief: as §1
# [2] = target: Man(a1-2)Man(a1-2)Man(a1-3)Man
# Method in brief: as §1
# [3] = target: Man(a1-2)Man(a1-2)Man(a1-6)[Man(a1-3)]Man
# Method in brief: as §1
# Man(a1-2)Man(a1-3)Man = target: Man(a1-2)Man(a1-3)Man
# Method in brief: as §1
# [4] = target: Man(a1-2)Man(a1-3)[Man(a1-2)Man(a1-6)]Man
# Method in brief: as §1
# [5] = target: Man(a1-2)Man(a1-3)[Man(a1-2)Man(a1-6)]Man(a1-6)[Man(a1-2)Man(a1-2)Man(a1-3)]Man
# Method in brief: as §1
# [6] = target: Man(a1-2)Man(a1-3)[Man(a1-2)Man(a1-6)]Man(a1-6)[Man(a1-2)Man(a1-2)Man(a1-3)]Man(b1-4)GlcNAc(b1-4)GlcNAc
# Method in brief: as §1
# [7] = target: Man(a1-2)Man(a1-3)[Man(a1-6)]Man(a1-6)[Man(a1-2)Man(a1-3)]Man(b1-4)GlcNAc(b1-4)GlcNAc
# Method in brief: as §1
# [8] = target: Man(a1-2)Man(a1-6)[Man(a1-3)]Man(a1-6)[Man(a1-2)Man(a1-2)Man(a1-3)]Man
# Method in brief: as §1
# [9] = target: Man(a1-2)Man(a1-6)[Man(a1-3)]Man(a1-6)[Man(a1-2)Man(a1-2)Man(a1-3)]Man(b1-4)GlcNAc(b1-4)GlcNAc
# Method in brief: as §1
# Man(a1-3)[Man(a1-6)]Man = target: Man(a1-3)[Man(a1-6)]Man
# Method in brief: as §1
# [10] = target: Man(a1-3)[Man(a1-6)]Man(a1-6)[Man(a1-2)Man(a1-3)]Man(b1-4)GlcNAc(b1-4)GlcNAc
# Method in brief: as §1
# [11] = target: Man(a1-3)[Man(a1-6)]Man(a1-6)[Man(a1-3)]Man
# Method in brief: as §1
# [12] = target: Man(a1-3)[Man(a1-6)]Man(a1-6)[Man(a1-3)]Man(b1-4)GlcNAc(b1-4)GlcNAc
# Method in brief: as §1
# [13] = target: Man(a1-3)[Man(a1-6)]Man(b1-4)GlcNAc(b1-4)GlcNAc
# Method in brief: as §1
# [14] = target: Man(a1-3)[Man(a1-6)]Man(b1-4)GlcNAc(b1-4)[Fuc(a1-6)]GlcNAc
# Method in brief: as §1
# Man(a1-6)Man = target: Man(a1-6)Man
# Method in brief: as §1
# Man(b1-4)GlcNAc = target: Man(b1-4)GlcNAc
# Method in brief: as §1
# MurNAc(b1-4)GlcNAc = target: MurNAc(b1-4)GlcNAc
# Method in brief: as §1
# Neu5Ac(a2-3)Gal = target: Neu5Ac(a2-3)Gal
# Method in brief: as §1
# [15] = target: Neu5Ac(a2-3)Gal(b1-3)GalNAc
# Method in brief: as §1
# [16] = target: Neu5Ac(a2-3)Gal(b1-3)GalNAc(b1-3)Gal(a1-4)Gal(b1-4)Glc
# Method in brief: as §1
# [17] = target: Neu5Ac(a2-3)Gal(b1-3)GalNAc(b1-4)[Neu5Ac(a2-3)]Gal(b1-4)Glc
# Method in brief: as §1
# [18] = target: Neu5Ac(a2-3)Gal(b1-3)GalNAc(b1-4)[Neu5Ac(a2-8)Neu5Ac(a2-3)]Gal(b1-4)Glc
# Method in brief: as §1
# [19] = target: Neu5Ac(a2-3)Gal(b1-3)GalNAc6S
# Method in brief: as §1
# [20] = target: Neu5Ac(a2-3)Gal(b1-3)GlcNAc
# Method in brief: as §1
# [21] = target: Neu5Ac(a2-3)Gal(b1-3)GlcNAc(b1-2)Man
# Method in brief: as §1
# [22] = target: Neu5Ac(a2-3)Gal(b1-3)GlcNAc(b1-2)Man(a1-3)[GlcNAc(b1-4)][Neu5Ac(a2-3)Gal(b1-3)GlcNAc(b1-2)Man(a1-6)]Man(b1-4)GlcNAc(b1-4)GlcNAc
# Method in brief: as §1
# [23] = target: Neu5Ac(a2-3)Gal(b1-3)GlcNAc(b1-2)Man(a1-3)[Neu5Ac(a2-3)Gal(b1-3)GlcNAc(b1-2)Man(a1-6)]Man(b1-4)GlcNAc(b1-4)GlcNAc
# Method in brief: as §1
# [24] = target: Neu5Ac(a2-3)Gal(b1-3)GlcNAc(b1-3)Gal(b1-3)GlcNAc
# Method in brief: as §1
# [25] = target: Neu5Ac(a2-3)Gal(b1-3)GlcNAc(b1-3)Gal(b1-4)GlcNAc
# Method in brief: as §1
# [26] = target: Neu5Ac(a2-3)Gal(b1-3)GlcNAc(b1-3)GalNAc
# Method in brief: as §1
# [27] = target: Neu5Ac(a2-3)Gal(b1-3)GlcNAc(b1-4)Gal(b1-4)Glc
# Method in brief: as §1
# [28] = target: Neu5Ac(a2-3)Gal(b1-3)GlcNAc(b1-6)GalNAc
# Method in brief: as §1
# [29] = target: Neu5Ac(a2-3)Gal(b1-3)GlcNAc6S
# Method in brief: as §1
binder,measurement,setting,value
B1,glycan array binding signal (z-score),Kdn(a2-3)Gal(b1-4)Glc,-0.249
same,glycan array binding signal (z-score),Kdn(a2-3)Gal(b1-4)GlcNAc,-0.296
same,glycan array binding signal (z-score),[1],-0.442
same,glycan array binding signal (z-score),Kdn(a2-6)Gal(b1-4)GlcNAc,-1.08
same,glycan array binding signal (z-score),[2],-0.16
same,glycan array binding signal (z-score),[3],-0.117
same,glycan array binding signal (z-score),Man(a1-2)Man(a1-3)Man,-0.863
same,glycan array binding signal (z-score),[4],-0.176
same,glycan array binding signal (z-score),[5],-0.894
same,glycan array binding signal (z-score),[6],0.366
same,glycan array binding signal (z-score),[7],-0.639
same,glycan array binding signal (z-score),[8],0.113
same,glycan array binding signal (z-score),[9],0.121
same,glycan array binding signal (z-score),Man(a1-3)[Man(a1-6)]Man,-0.364
same,glycan array binding signal (z-score),[10],-0.891
same,glycan array binding signal (z-score),[11],0.132
same,glycan array binding signal (z-score),[12],0.145
same,glycan array binding signal (z-score),[13],-0.902
same,glycan array binding signal (z-score),[14],-0.263
same,glycan array binding signal (z-score),Man(a1-6)Man,0.531
same,glycan array binding signal (z-score),Man(b1-4)GlcNAc,0.276
same,glycan array binding signal (z-score),MurNAc(b1-4)GlcNAc,-1.36
same,glycan array binding signal (z-score),Neu5Ac(a2-3)Gal,-0.287
same,glycan array binding signal (z-score),[15],-0.825
same,glycan array binding signal (z-score),[16],-1.07
same,glycan array binding signal (z-score),[17],-0.316
same,glycan array binding signal (z-score),[18],1.34
same,glycan array binding signal (z-score),[19],-0.574
same,glycan array binding signal (z-score),[20],-0.614
same,glycan array binding signal (z-score),[21],0.998
same,glycan array binding signal (z-score),[22],0.307
same,glycan array binding signal (z-score),[23],0.236
same,glycan array binding signal (z-score),[24],-0.26
same,glycan array binding signal (z-score),[25],0.014
same,glycan array binding signal (z-score),[26],-0.574
same,glycan array binding signal (z-score),[27],-0.746
same,glycan array binding signal (z-score),[28],-0.038
same,glycan array binding signal (z-score),[29],-0.963

# 9 successive records from above:
binder,measurement,setting,value
B1,glycan array binding signal (z-score),[4],-0.176
same,glycan array binding signal (z-score),[5],-0.894
same,glycan array binding signal (z-score),[6],0.366
same,glycan array binding signal (z-score),[7],-0.639
same,glycan array binding signal (z-score),[8],0.113
same,glycan array binding signal (z-score),[9],0.121
same,glycan array binding signal (z-score),Man(a1-3)[Man(a1-6)]Man,-0.364
same,glycan array binding signal (z-score),[10],-0.891
same,glycan array binding signal (z-score),[11],0.132

# — the supplement of paper PMC8728848
